Source: the supplement of paper PMC10849652
Some of the results follow.

Chains of the proteins cited; added tags and fusions are not shown. Lines headed by an entry give the natural chain unless they say otherwise; changes in a name come on top.
UniProt Q00765: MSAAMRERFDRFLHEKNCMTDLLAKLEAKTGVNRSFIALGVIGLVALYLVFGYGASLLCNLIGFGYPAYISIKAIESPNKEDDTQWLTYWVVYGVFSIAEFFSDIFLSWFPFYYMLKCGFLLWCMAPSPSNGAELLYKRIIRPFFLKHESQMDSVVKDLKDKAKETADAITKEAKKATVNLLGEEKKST
UniProt P42696: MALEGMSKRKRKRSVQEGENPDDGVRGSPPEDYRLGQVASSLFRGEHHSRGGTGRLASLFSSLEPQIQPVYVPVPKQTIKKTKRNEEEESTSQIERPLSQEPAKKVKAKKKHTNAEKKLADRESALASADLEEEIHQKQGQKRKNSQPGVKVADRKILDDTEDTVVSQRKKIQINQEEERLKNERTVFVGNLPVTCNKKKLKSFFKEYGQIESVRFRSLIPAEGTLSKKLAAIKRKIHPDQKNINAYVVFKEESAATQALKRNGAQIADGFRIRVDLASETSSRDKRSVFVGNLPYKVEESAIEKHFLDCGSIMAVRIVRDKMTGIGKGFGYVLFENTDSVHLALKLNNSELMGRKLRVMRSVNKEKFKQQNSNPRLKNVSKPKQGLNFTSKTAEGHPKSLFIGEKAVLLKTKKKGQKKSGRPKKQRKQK
UniProt O15258: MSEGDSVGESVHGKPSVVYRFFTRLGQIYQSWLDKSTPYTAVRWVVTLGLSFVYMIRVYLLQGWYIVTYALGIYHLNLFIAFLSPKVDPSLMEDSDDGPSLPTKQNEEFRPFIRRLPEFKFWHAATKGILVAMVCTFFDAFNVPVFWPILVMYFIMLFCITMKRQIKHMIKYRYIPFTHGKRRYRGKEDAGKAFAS
UniProt Q9Y3B8: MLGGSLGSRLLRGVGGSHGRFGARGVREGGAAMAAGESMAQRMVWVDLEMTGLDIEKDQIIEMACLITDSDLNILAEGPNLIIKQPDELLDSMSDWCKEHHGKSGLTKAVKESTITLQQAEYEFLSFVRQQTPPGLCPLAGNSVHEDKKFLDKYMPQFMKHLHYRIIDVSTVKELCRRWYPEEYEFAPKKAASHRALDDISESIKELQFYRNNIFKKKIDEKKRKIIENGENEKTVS
UniProt Q9Y4C8: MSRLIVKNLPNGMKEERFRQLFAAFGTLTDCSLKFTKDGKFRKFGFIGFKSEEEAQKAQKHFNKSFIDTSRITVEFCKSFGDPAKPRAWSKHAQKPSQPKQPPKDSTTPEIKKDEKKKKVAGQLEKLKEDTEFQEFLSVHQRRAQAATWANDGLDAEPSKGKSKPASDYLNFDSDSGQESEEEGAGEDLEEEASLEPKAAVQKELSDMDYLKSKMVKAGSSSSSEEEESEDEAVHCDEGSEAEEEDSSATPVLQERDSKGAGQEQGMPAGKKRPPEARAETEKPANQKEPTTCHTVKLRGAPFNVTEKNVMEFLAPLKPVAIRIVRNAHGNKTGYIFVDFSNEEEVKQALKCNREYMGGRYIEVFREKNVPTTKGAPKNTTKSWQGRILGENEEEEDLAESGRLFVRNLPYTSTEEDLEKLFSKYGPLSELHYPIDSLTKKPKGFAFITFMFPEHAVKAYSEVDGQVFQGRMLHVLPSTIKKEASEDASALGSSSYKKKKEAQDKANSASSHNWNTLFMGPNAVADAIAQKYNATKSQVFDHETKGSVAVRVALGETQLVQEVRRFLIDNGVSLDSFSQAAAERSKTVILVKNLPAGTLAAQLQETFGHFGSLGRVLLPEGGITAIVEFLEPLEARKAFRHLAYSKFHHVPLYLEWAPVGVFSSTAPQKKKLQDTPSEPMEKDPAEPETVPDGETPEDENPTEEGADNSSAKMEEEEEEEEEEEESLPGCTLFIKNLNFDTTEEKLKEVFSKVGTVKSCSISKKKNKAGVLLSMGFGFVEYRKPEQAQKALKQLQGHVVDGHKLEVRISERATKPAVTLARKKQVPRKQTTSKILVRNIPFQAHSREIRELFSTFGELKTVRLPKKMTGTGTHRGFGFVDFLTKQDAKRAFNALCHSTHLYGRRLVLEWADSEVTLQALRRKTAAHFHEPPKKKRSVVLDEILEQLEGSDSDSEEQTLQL
UniProt P53805: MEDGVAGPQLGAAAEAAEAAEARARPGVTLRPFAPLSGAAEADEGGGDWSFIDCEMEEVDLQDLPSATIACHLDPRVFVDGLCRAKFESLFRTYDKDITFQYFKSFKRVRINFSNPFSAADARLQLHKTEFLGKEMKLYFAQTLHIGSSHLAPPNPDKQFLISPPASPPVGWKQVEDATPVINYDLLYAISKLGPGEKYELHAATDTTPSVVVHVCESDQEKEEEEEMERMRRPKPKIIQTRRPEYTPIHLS
UniProt P49756, whole entry, looked up: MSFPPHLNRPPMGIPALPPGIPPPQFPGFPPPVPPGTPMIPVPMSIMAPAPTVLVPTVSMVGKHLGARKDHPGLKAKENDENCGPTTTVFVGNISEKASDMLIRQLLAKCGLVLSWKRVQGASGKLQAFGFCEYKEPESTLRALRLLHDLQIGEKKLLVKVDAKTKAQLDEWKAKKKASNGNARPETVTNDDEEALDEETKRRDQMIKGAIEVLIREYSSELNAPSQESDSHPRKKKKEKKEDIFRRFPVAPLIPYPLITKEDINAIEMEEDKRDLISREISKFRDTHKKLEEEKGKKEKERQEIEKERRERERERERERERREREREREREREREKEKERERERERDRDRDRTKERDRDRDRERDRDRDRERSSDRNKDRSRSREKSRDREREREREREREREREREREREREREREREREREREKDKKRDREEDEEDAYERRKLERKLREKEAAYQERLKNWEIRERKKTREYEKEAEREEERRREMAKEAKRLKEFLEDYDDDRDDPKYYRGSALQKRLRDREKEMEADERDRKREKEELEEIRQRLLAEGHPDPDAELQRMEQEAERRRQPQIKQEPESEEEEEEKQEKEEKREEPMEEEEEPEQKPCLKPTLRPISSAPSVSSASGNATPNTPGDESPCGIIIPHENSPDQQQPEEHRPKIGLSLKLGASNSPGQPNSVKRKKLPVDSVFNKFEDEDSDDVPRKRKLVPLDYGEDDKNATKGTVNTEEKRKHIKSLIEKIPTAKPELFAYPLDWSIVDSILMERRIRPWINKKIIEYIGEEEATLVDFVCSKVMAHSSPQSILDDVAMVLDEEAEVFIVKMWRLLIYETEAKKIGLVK
UniProt Q969G6: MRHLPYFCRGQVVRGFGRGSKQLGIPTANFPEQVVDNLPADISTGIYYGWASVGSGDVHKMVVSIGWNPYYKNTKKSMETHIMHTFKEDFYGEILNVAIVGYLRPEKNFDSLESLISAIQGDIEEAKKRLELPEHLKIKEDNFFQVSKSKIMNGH
UniProt P35249, whole entry, looked up: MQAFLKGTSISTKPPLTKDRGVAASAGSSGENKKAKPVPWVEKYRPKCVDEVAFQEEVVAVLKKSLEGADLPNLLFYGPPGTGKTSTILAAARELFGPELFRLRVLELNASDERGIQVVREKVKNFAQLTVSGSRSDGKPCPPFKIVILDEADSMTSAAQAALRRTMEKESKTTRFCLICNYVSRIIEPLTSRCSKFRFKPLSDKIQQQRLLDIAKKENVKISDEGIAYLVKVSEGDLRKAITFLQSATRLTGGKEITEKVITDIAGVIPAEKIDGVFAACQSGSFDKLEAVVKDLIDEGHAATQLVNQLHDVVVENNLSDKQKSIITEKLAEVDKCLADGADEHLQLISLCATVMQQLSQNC
UniProt P35250, whole entry, looked up: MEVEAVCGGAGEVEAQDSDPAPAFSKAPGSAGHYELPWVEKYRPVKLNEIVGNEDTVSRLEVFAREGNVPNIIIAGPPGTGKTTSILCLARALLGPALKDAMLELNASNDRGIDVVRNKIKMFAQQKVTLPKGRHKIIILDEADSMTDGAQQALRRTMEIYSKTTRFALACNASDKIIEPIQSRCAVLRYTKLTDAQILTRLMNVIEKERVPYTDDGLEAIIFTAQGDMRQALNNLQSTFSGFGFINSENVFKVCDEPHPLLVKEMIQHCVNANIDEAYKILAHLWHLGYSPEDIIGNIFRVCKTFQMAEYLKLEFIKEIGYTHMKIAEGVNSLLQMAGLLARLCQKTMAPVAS
UniProt Q9Y256: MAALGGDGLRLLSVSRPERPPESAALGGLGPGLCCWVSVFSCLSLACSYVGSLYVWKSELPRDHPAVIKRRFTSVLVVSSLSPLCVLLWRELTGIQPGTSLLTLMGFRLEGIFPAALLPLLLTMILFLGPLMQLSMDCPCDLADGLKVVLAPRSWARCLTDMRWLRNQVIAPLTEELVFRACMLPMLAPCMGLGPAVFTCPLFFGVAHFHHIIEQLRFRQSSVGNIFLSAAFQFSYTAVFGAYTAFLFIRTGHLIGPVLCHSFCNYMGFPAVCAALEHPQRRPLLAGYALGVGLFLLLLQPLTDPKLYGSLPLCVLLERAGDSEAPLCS
UniProt Q9BWE0: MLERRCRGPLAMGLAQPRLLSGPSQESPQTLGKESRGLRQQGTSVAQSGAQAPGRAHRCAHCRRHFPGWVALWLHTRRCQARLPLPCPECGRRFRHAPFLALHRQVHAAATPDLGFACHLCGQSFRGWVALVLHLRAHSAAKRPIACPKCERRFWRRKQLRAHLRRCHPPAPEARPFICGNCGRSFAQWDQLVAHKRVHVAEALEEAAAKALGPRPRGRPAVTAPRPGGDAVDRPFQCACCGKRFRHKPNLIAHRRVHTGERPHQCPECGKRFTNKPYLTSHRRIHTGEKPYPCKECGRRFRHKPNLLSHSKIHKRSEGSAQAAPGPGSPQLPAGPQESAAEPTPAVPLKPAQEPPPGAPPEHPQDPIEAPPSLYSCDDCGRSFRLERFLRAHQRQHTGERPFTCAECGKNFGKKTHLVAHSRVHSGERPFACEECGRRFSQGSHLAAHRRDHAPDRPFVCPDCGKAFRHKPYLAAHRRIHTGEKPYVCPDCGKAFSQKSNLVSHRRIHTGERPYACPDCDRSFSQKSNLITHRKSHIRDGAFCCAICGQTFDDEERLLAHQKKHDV
UniProt Q9P2N5: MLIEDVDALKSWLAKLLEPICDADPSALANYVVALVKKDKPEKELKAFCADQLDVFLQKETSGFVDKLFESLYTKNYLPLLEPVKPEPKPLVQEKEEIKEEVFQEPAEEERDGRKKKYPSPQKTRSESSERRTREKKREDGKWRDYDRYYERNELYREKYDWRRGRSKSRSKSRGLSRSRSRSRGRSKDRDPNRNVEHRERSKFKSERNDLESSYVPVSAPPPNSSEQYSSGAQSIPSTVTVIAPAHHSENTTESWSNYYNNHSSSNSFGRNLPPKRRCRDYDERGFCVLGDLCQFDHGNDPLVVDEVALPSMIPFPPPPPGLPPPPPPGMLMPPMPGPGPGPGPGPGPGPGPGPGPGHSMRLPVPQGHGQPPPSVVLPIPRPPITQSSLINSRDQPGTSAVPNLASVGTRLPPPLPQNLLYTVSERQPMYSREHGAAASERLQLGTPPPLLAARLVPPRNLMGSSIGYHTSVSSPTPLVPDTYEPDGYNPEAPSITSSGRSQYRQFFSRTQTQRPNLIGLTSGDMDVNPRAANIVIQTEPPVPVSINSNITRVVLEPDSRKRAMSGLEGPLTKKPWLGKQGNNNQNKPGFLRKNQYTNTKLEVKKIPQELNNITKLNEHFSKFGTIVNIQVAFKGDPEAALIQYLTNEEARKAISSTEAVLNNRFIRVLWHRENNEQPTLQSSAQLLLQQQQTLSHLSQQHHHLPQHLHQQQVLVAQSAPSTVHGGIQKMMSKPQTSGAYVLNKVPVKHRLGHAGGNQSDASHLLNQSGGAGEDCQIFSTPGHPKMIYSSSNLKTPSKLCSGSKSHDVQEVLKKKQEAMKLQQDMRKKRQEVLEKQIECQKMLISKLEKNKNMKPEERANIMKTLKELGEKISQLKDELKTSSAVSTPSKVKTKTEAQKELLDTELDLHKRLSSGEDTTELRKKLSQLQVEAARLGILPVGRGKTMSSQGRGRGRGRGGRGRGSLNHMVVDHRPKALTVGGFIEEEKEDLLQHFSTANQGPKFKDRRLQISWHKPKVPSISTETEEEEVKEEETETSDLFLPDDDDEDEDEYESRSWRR
UniProt P54136: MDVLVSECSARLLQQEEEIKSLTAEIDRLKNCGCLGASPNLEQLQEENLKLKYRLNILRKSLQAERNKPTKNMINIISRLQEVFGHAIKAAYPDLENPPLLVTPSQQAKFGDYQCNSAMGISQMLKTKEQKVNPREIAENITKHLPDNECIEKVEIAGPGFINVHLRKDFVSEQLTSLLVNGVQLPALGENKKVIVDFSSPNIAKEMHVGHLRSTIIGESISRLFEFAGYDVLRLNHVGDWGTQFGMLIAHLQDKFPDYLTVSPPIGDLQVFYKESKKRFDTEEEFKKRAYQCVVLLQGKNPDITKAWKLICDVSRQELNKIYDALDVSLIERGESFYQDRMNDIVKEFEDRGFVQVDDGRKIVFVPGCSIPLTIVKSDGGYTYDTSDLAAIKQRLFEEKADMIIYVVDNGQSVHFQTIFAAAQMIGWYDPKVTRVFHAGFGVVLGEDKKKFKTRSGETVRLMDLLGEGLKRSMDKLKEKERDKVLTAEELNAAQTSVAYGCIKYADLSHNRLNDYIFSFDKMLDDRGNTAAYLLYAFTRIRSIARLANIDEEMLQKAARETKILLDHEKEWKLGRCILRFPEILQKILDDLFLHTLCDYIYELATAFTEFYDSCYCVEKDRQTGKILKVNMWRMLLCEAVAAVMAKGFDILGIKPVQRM

Experiments:
Assay in all cases: log2 fold change, soluble protein after heating vs DMSO (PISA); higher = thermal stabilisation; K562 lysate, 10 uM; active = over 0.2 and 3.5 SD of the protein, either way, in both replicates (recomputed)
ibrutinib = compound: C=CC(=O)N1CCC[C@@H](n2nc(-c3ccc(Oc4ccccc4)cc3)c3c(N)ncnc32)C1 [ibrutinib]
Outline: (§1)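 Dounce homogenisation of K562 pellets in PBS pH 7.4 with 1 mM MgCl2 produced a crude extract, used at 1 mg/mL protein. Exposure to 10 μM compound lasted 30 min, and aliquots were then heated for 3 min across 48°C-58°C, pooled and brought to 0.5% NP-40 at 4°C. The supernatant after 21,000xg for 90 min was quantified by TMTpro 16plex LC-MS/MS with channel sums equalised. Duplicate values are given as log-two fold change in thermal stability relative to solvent controls.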

[1] = compound: CC(=O)c1cnc2ccc(-c3cc(Cl)c(O)c(Cl)c3)nc2c1N[C@H]1CC[C@H](CN(C)C)CC1
Outline: as §1

ralimetinib = compound: CC(C)(C)Cn1c(N)nc2ccc(-c3[nH]c(C(C)(C)C)nc3-c3ccc(F)cc3)nc21 [ralimetinib]
Outline: as §1

[2] = compound: CC(C)(O)CC(=O)NCCn1ccc2ncnc(Nc3ccc(Oc4cccc(C(F)(F)F)c4)c(Cl)c3)c21
Outline: as §1

[3] = compound: CC(C)C1=C2N=C(C=C(N2N=C1)NCC3=CC=CC=C3)NCCCCCCN
Outline: as §1

[4] = compound: CC1=C(C(CC(=O)N1)C2=CC=C(C=C2)C(F)(F)F)C(=O)NC3=C(C=C4C(=C3)C=NN4)F
Outline: as §1

[5] = compound: CC1=C(C2=C(C=C1)C(=O)C3=CC=CC=C3N2CCCN)C
Outline: as §1

[6] = compound: CC1=C(C=C(C=C1)NC(=O)C2=CC(=CC=C2)C(C)(C)C#N)NC3=CC4=C(C=C3)N=CN(C4=O)C
Outline: as §1

[7] = compound: CC1=C(C=C(C=C1)NC(=O)C2=CC(=CC=C2)N(C)C)NC(=O)C3=CC=C(C=C3)O
Outline: as §1

[8] = compound: CC1=CC=C(C=C1)SC2=C3C=C(SC3=CN=C2)C(=O)N
Outline: as §1

Measured: log2 fold change

RARS2 (UniProt Q5T160)
inactive: ibrutinib 0.02 | [1] 0.009 | ralimetinib 0.001 | [2] -0.019 | [3] 0.061 | [4] -0.026 | [5] -0.042 | [6] 0.005 | [7] -0.032 | [8] -0.009

RENBP (UniProt P51606)
inactive: ibrutinib -0.039 | [1] -0.032 | ralimetinib -0.012 | [2] -0.008 | [3] 0.002 | [4] 0.021 | [5] -0.042 | [6] 0.023 | [7] -0.007 | [8] 0.014

REEP5 (UniProt Q00765)
inactive: ibrutinib 0.043 | [1] 0.004 | ralimetinib -0.014 | [2] -0.01 | [3] -0.037 | [4] 0.017 | [5] -0.039 | [6] 0.004 | [7] -0.016 | [8] -0.042

RBM34 (UniProt P42696)
inactive: ibrutinib -0.038 | [1] -0.022 | ralimetinib -0.015 | [2] 0.022 | [3] 0.006 | [4] -0.011 | [5] -0.027 | [6] 0.034 | [7] 0.043 | [8] -0.01

RER1 (UniProt O15258)
inactive: ibrutinib -0.014 | [1] 0.022 | ralimetinib 0.032 | [2] -0.005 | [3] -0.015 | [4] 0.013 | [5] -0.012 | [6] -0.007 | [7] -0.008 | [8] 0.023

RELN (UniProt P78509)
active: [1] -0.237
inactive: ibrutinib 0.011 | ralimetinib 0.011 | [2] -0.038 | [3] -0.039 | [4] -0.01 | [5] 0 | [6] -0.002 | [7] 0.041 | [8] 0.09

RAVER1 (UniProt E9PAU2)
inactive: ibrutinib -0.032 | [1] 0.021 | ralimetinib 0.016 | [2] 0.007 | [3] 0.012 | [4] 0.066 | [5] -0.003 | [6] 0.066 | [7] -0.014 | [8] 0.005

REXO2 (UniProt Q9Y3B8)
inactive: ibrutinib 0.05 | [1] 0.019 | ralimetinib -0.022 | [2] 0.014 | [3] 0.001 | [4] -0.006 | [5] 0.024 | [6] -0.018 | [7] -0.021 | [8] 0.008

RBM19 (UniProt Q9Y4C8)
inactive: ibrutinib -0.126 | [1] 0.064 | ralimetinib 0.107 | [2] 0.031 | [3] -0.059 | [4] 0.042 | [5] -0.015 | [6] -0.215 | [7] 0.033 | [8] -0.004

RCAN1 (UniProt P53805)
inactive: ibrutinib -0.019 | [1] 0.003 | ralimetinib -0.004 | [2] 0.012 | [3] 0.002 | [4] 0.026 | [5] -0.027 | [6] 0.085 | [7] -0.02 | [8] 0.02

RBM25 (UniProt P49756)
inactive: ibrutinib 0.062 | [1] 0.023 | ralimetinib -0.021 | [2] -0.062 | [3] -0.021 | [4] -0.006 | [5] 0.002 | [6] -0.031 | [7] -0.008 | [8] -0.012

RERE (UniProt Q9P2R6)
inactive: ibrutinib -0.007 | [1] -0.015 | ralimetinib 0.004 | [2] -0.065 | [3] 0.019 | [4] -0.02 | [5] -0.008 | [6] -0.129 | [7] 0.03 | [8] -0.084

REV3L (UniProt O60673)
inactive: ibrutinib 0 | [1] 0.034 | ralimetinib 0.018 | [2] -0.296 | [3] 0.064 | [4] 0.085 | [5] -0.12 | [6] 0.316 | [7] 0.024 | [8] -0.116

RFESD isoform 2 (UniProt Q8TAC1)
inactive: ibrutinib 0.025 | [1] -0.009 | ralimetinib -0.005 | [2] 0.03 | [3] -0.016 | [4] -0.02 | [5] 0.011 | [6] 0.016 | [7] -0.027 | [8] -0.013

RFK (UniProt Q969G6)
inactive: ibrutinib 0.052 | [1] -0.037 | ralimetinib 0.056 | [2] 0.091 | [3] -0.017 | [4] 0.005 | [5] 0.032 | [6] 0.007 | [7] 0.027 | [8] -0.042

RBX1 (UniProt P62877)
inactive: ibrutinib 0.165 | [1] -0.087 | ralimetinib 0.259 | [2] 0.22 | [3] -0.014 | [4] 0.062 | [5] 0.136 | [6] 0.107 | [7] -0.031 | [8] -0.02

RFC4 (UniProt P35249)
inactive: ibrutinib -0.01 | [1] -0.008 | ralimetinib -0.01 | [2] -0.015 | [3] 0.032 | [4] 0 | [5] 0.026 | [6] -0.001 | [7] 0.002 | [8] 0.019

RB1 (UniProt P06400)
inactive: ibrutinib 0.017 | [1] -0.005 | ralimetinib 0.006 | [2] -0.003 | [3] -0.005 | [4] 0.003 | [5] 0.007 | [6] -0.031 | [7] -0.021 | [8] 0.008

Reprinted at random: 2 records from the list
RFK (UniProt Q969G6)
inactive: ibrutinib 0.052 | [1] -0.037 | ralimetinib 0.056 | [2] 0.091 | [3] -0.017 | [4] 0.005 | [5] 0.032 | [6] 0.007 | [7] 0.027 | [8] -0.042

RBX1 (UniProt P62877)
inactive: ibrutinib 0.165 | [1] -0.087 | ralimetinib 0.259 | [2] 0.22 | [3] -0.014 | [4] 0.062 | [5] 0.136 | [6] 0.107 | [7] -0.031 | [8] -0.02

Remaining list, next part:

RFC2 (UniProt P35250)
inactive: ibrutinib 0.009 | [1] 0.018 | ralimetinib 0.036 | [2] 0.044 | [3] -0.002 | [4] -0.001 | [5] 0.011 | [6] 0.008 | [7] 0.048 | [8] -0.001

RCE1 (UniProt Q9Y256)
inactive: ibrutinib -0.05 | [1] 0.189 | ralimetinib 0.084 | [2] -0.21 | [3] -0.056 | [4] 0.269 | [5] -0.341 | [6] 0.05 | [7] -0.027 | [8] -0.011

REPIN1 isoform 4 (UniProt Q9BWE0)
inactive: ibrutinib 0.018 | [1] -0.033 | ralimetinib 0.042 | [2] -0.058 | [3] 0.053 | [4] -0.011 | [5] -0.048 | [6] -0.02 | [7] 0.027 | [8] 0.041

RETREG3 (UniProt Q86VR2)
inactive: ibrutinib -0.006 | [1] -0.025 | ralimetinib -0.039 | [2] -0.058 | [3] 0.054 | [4] 0.068 | [5] -0.059 | [6] 0.097 | [7] 0.085 | [8] -0.043

RBM27 (UniProt Q9P2N5)
inactive: ibrutinib 0.054 | [1] 0.001 | ralimetinib 0.019 | [2] -0.012 | [3] 0.029 | [4] 0.006 | [5] 0.015 | [6] -0.037 | [7] 0.021 | [8] 0.02

RBM33 (UniProt Q96EV2)
inactive: ibrutinib 0.056 | [1] 0.004 | ralimetinib 0.065 | [2] -0.013 | [3] -0.014 | [4] -0.022 | [5] -0.002 | [6] 0.021 | [7] -0.003 | [8] -0.013

REPS1 (UniProt Q96D71)
inactive: ibrutinib -0.02 | [1] -0.009 | ralimetinib 0.006 | [2] -0.068 | [3] 0.003 | [4] -0.011 | [5] -0.014 | [6] 0.027 | [7] 0.015 | [8] 0.003

RARS (UniProt P54136)
inactive: ibrutinib -0.001 | [1] -0.003 | ralimetinib 0.062 | [2] 0.048 | [3] 0.033 | [4] -0.019 | [5] 0.015 | [6] -0.003 | [7] 0.06 | [8] 0.033

RBBP7 isoform 2 (UniProt Q16576)
inactive: ibrutinib 0.016 | [1] 0.043 | ralimetinib 0.062 | [2] 0.042 | [3] -0.028 | [4] -0.029 | [5] 0.011 | [6] -0.002 | [7] -0.001 | [8] 0.034
